Data reported in article PMC7948452.
No constants are given. Whether binding was seen depends on the method and setting. In cells and extracts the contact can be indirect. Here binding means that the protein was enriched with, or labelled near, the bait; the list need not be complete. Sequences can lack the tags named with a protein.

Amino acid sequences for entries named in this document (tags omitted).
UniProt Q13547: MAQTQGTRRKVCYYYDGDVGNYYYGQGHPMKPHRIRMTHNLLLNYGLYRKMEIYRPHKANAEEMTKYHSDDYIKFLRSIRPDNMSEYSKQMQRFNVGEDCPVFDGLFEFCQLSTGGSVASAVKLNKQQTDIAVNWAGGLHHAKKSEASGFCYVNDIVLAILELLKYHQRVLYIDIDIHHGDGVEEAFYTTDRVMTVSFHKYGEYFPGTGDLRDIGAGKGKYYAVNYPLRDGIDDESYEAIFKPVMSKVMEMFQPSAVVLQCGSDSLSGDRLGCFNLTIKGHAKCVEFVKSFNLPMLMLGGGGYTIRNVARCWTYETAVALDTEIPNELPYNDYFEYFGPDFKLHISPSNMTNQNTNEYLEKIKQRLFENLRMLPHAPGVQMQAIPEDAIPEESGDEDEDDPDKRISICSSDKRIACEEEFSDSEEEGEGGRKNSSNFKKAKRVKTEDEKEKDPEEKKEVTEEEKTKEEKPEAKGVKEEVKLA
UniProt Q86V97: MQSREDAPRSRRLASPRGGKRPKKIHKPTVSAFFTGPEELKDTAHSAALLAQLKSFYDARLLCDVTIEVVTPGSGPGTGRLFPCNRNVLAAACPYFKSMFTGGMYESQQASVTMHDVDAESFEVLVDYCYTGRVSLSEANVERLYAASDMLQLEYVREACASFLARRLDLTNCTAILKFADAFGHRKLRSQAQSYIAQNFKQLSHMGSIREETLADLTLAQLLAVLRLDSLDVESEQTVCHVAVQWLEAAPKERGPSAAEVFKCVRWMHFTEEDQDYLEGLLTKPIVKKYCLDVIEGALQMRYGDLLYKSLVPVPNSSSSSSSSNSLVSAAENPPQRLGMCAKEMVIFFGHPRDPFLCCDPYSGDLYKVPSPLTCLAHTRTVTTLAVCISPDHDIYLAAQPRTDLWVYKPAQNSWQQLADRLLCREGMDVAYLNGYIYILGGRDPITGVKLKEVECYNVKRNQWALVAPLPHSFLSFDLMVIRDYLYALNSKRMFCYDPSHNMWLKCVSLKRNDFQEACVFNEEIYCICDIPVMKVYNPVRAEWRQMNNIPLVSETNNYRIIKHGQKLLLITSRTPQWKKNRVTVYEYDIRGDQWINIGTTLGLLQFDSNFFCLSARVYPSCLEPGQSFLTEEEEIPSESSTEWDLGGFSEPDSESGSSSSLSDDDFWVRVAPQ
UniProt Q8WVZ9: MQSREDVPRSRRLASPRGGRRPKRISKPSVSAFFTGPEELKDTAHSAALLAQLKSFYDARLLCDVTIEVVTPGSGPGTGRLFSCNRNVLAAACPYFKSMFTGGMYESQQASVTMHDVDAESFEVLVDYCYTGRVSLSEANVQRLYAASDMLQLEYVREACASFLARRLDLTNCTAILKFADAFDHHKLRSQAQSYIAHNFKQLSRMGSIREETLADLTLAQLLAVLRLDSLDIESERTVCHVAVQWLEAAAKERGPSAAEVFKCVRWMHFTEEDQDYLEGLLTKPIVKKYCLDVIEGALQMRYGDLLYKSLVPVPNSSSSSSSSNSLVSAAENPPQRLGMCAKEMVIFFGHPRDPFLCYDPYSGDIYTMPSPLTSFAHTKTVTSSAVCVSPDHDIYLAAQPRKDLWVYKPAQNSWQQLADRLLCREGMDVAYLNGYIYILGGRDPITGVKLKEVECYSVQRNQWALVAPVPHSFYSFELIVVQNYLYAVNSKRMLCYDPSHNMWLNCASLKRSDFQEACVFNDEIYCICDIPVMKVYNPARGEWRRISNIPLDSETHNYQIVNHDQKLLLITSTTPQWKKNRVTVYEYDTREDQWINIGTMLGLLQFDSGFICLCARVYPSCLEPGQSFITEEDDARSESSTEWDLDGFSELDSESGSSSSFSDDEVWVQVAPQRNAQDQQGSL

Each substance was assayed against T1, FLAG-TULP3 (human) (UniProt O75386) (assay: affinity purification with mass spectrometry; lysates of HEK293T cells expressing FLAG-TULP3 or empty MSCV (mock-FLAG), anti-FLAG beads, SDS-PAGE, in-gel trypsin digestion, LC-MS/MS; hits of the mock IP and proteins with high CRAPome counts removed).
T1 sequence: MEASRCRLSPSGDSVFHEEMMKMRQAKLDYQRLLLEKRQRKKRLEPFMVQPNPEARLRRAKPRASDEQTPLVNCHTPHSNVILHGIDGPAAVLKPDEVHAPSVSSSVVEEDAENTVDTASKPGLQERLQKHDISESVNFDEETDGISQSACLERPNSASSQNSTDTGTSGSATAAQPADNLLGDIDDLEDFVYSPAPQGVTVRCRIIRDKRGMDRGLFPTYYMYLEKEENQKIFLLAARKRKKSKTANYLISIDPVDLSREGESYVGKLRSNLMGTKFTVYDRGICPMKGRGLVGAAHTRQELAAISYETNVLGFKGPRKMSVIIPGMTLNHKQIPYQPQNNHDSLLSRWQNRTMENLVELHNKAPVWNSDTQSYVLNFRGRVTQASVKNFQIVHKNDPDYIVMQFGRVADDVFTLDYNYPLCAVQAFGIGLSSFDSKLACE
“HDAC1 (from UniProt Q13547 1-482) (enzyme)” was tested, and the binding was “binds”. For KBTB6 (from UniProt Q86V97 1-674), the binding was “binds”. With KBTB7 (from UniProt Q8WVZ9 1-684) the binding was “binds”.
